# Measured values reported in the supplement of paper PMC8728848.
# Some of the results follow.
# B1: PEB4 (Campylobacter jejuni), A1VYV6 (protein)
# chain: MKKFSLVAAALIAGVALNVNAATVATVNGKSISDAEVSEFFAPMLRGQDFKTLPDNQKKALIQQYIMQDLILQDAKKQNLEKDPLYTKELDRAKDAILVNVYQEKILNTIKIDAAKVKAFYDQNKDKYVKPARVQAKHILVATEKEAKDIINELKGLKGKELDAKFSELAKEKSIDPGSKNQGGELGWFDQSTMVKPFTDAAFALKNGTITTTPVKTNFGYHVILKENSQAKGQIKFDEVKQGIENGLKFEEFKKVINQKGQDLLNSAKVEYK
# Columns and labels:
# Assay in all cases: glycan array binding signal (z-score within array); higher = stronger binding
# Settings in all cases: glycan notation: IUPAC condensed, linker removed
# [1] = biological target: Fuc(a1-2)[GalNAc(a1-3)]Gal(b1-4)GlcNAc(b1-3)Gal(b1-4)GlcNAc
# Method in brief: (§1)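 The binding signal is a Z-score computed within each array. Data were drawn from 3228 arrays in the Consortium for Functional Glycomics database, restricted to those with a known protein sequence. Scores were averaged over arrays of the same protein sequence at different concentrations or buffers, and over linkers, and negative values can be taken as non-binding.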
# [2] = biological target: Fuc(a1-2)[GalNAc(a1-3)]Gal(b1-4)GlcNAc(b1-3)Gal(b1-4)GlcNAc(b1-3)Gal(b1-4)GlcNAc
# Method in brief: as §1
# [3] = biological target: Fuc(a1-2)[GalNAc(a1-3)]Gal(b1-4)[Fuc(a1-3)]GlcNAc
# Method in brief: as §1
# [4] = biological target: Fuc(a1-2)[GalNAc(a1-4)]Gal(b1-4)GlcNAc
# Method in brief: as §1
# [5] = biological target: Fuc(a1-2)[GalNAc(b1-3)]Gal
# Method in brief: as §1
# Fuc(a1-3)GlcNAc = biological target: Fuc(a1-3)GlcNAc
# Method in brief: as §1
# [6] = biological target: Fuc(a1-3)[Gal(b1-4)]Glc6S
# Method in brief: as §1
# [7] = biological target: Fuc(a1-3)[Gal(b1-4)]GlcNAc
# Method in brief: as §1
# [8] = biological target: Fuc(a1-3)[Gal(b1-4)]GlcNAc(b1-2)Man(a1-3)[Fuc(a1-3)[Gal(b1-4)]GlcNAc(b1-2)Man(a1-6)]Man(b1-4)GlcNAc(b1-4)GlcNAc
# Method in brief: as §1
# [9] = biological target: Fuc(a1-3)[Gal(b1-4)]GlcNAc(b1-3)Gal(b1-3)[Fuc(a1-4)]GlcNAc
# Method in brief: as §1
# [10] = biological target: Fuc(a1-3)[Gal(b1-4)]GlcNAc(b1-3)GalNAc
# Method in brief: as §1
# [11] = biological target: Fuc(a1-3)[Gal(b1-4)]GlcNAc(b1-4)Gal(b1-4)[Fuc(a1-3)]GlcNAc
# Method in brief: as §1
# [12] = biological target: Fuc(a1-3)[Gal(b1-4)]GlcNAc(b1-4)Gal(b1-4)[Fuc(a1-3)]GlcNAc(b1-4)Gal(b1-4)[Fuc(a1-3)]GlcNAc
# Method in brief: as §1
# [13] = biological target: Fuc(a1-3)[Gal(b1-4)]GlcNAc(b1-6)[Gal(b1-3)GlcNAc(b1-3)]Gal(b1-4)Glc
# Method in brief: as §1
# [14] = biological target: Fuc(a1-3)[Gal(b1-4)]GlcNAc6S
# Method in brief: as §1
# [15] = biological target: Fuc(a1-3)[Gal3S(b1-4)]GlcNAc
# Method in brief: as §1
# [16] = biological target: Fuc(a1-3)[Gal3S(b1-4)]GlcNAc6S
# Method in brief: as §1
# [17] = biological target: Fuc(a1-3)[GalNAc(b1-4)]GlcNAc
# Method in brief: as §1
# Fuc(a1-4)GlcNAc = biological target: Fuc(a1-4)GlcNAc
# Method in brief: as §1
# Fuc(b1-3)GlcNAc = biological target: Fuc(b1-3)GlcNAc
# Method in brief: as §1
# Gal(a1-2)Gal = biological target: Gal(a1-2)Gal
# Method in brief: as §1
# Gal(a1-3)Gal = biological target: Gal(a1-3)Gal
# Method in brief: as §1
# Gal(a1-3)Gal(b1-3)GlcNAc = biological target: Gal(a1-3)Gal(b1-3)GlcNAc
# Method in brief: as §1
# [18] = biological target: Gal(a1-3)Gal(b1-3)GlcNAc(b1-2)Man(a1-3)[Gal(a1-3)Gal(b1-3)GlcNAc(b1-2)Man(a1-6)]Man(b1-4)GlcNAc(b1-4)GlcNAc
# Method in brief: as §1
# [19] = biological target: Gal(a1-3)Gal(b1-3)[Fuc(a1-4)]GlcNAc(b1-2)Man(a1-3)[Gal(a1-3)Gal(b1-3)[Fuc(a1-4)]GlcNAc(b1-2)Man(a1-6)]Man(b1-4)GlcNAc(b1-4)GlcNAc
# Method in brief: as §1
# Gal(a1-3)Gal(b1-4)Glc = biological target: Gal(a1-3)Gal(b1-4)Glc
# Method in brief: as §1
# Gal(a1-3)Gal(b1-4)GlcNAc = biological target: Gal(a1-3)Gal(b1-4)GlcNAc
# Method in brief: as §1
# [20] = biological target: Gal(a1-3)Gal(b1-4)GlcNAc(b1-3)GalNAc
# Method in brief: as §1
# [21] = biological target: Gal(a1-3)Gal(b1-4)[Fuc(a1-3)]GlcNAc
# Method in brief: as §1
# [22] = biological target: Gal(a1-3)Gal(b1-4)[Fuc(a1-3)]GlcNAc(b1-2)Man(a1-3)[Gal(a1-3)Gal(b1-4)[Fuc(a1-3)]GlcNAc(b1-2)Man(a1-6)]Man(b1-4)GlcNAc(b1-4)GlcNAc
# Method in brief: as §1
# Gal(a1-3)GalNAc = biological target: Gal(a1-3)GalNAc
# Method in brief: as §1
# [23] = biological target: Gal(a1-3)[Gal(a1-4)]Gal(b1-4)GlcNAc
# Method in brief: as §1
# [24] = biological target: Gal(a1-4)Gal(b1-3)GlcNAc(b1-2)Man(a1-3)[Gal(a1-4)Gal(b1-3)GlcNAc(b1-2)Man(a1-6)]Man(b1-4)GlcNAc(b1-4)GlcNAc
# Method in brief: as §1
# Gal(a1-4)Gal(b1-4)Glc = biological target: Gal(a1-4)Gal(b1-4)Glc
# Method in brief: as §1
# Gal(a1-4)Gal(b1-4)GlcNAc = biological target: Gal(a1-4)Gal(b1-4)GlcNAc
# Method in brief: as §1
# [25] = biological target: Gal(a1-4)Gal(b1-4)GlcNAc(b1-2)Man(a1-3)[Gal(a1-4)Gal(b1-4)GlcNAc(b1-2)Man(a1-6)]Man(b1-4)GlcNAc(b1-4)GlcNAc
# Method in brief: as §1
# [26] = biological target: Gal(a1-4)Gal(b1-4)GlcNAc(b1-3)Gal(b1-4)Glc
# Method in brief: as §1
# Gal(a1-4)GlcNAc = biological target: Gal(a1-4)GlcNAc
# Method in brief: as §1
# Gal(a1-6)Glc = biological target: Gal(a1-6)Glc
# Method in brief: as §1
# Gal(b1-2)Gal = biological target: Gal(b1-2)Gal
# Method in brief: as §1
# Gal(b1-3)Gal = biological target: Gal(b1-3)Gal
# Method in brief: as §1
# Gal(b1-3)Gal(b1-4)GlcNAc = biological target: Gal(b1-3)Gal(b1-4)GlcNAc
# Method in brief: as §1
# [27] = biological target: Gal(b1-3)Gal(b1-4)GlcNAc(b1-2)Man(a1-3)[Gal(b1-3)Gal(b1-4)GlcNAc(b1-2)Man(a1-6)]Man(b1-4)GlcNAc(b1-4)GlcNAc
# Method in brief: as §1
# Gal(b1-3)GalNAc = biological target: Gal(b1-3)GalNAc
# Method in brief: as §1
# [28] = biological target: Gal(b1-3)GalNAc(a1-3)[Fuc(a1-2)]Gal(b1-4)Glc
# Method in brief: as §1
binder,measurement,setting,value
B1,glycan array binding signal (z-score),[1],0.759
same,glycan array binding signal (z-score),[2],0
same,glycan array binding signal (z-score),[3],1.13
same,glycan array binding signal (z-score),[4],0.144
same,glycan array binding signal (z-score),[5],0.071
same,glycan array binding signal (z-score),Fuc(a1-3)GlcNAc,-0.572
same,glycan array binding signal (z-score),[6],-0.356
same,glycan array binding signal (z-score),[7],-0.387
same,glycan array binding signal (z-score),[8],-0.571
same,glycan array binding signal (z-score),[9],-0.033
same,glycan array binding signal (z-score),[10],1.72
same,glycan array binding signal (z-score),[11],0.912
same,glycan array binding signal (z-score),[12],-0.132
same,glycan array binding signal (z-score),[13],1.05
same,glycan array binding signal (z-score),[14],1.19
same,glycan array binding signal (z-score),[15],-0.585
same,glycan array binding signal (z-score),[16],0.881
same,glycan array binding signal (z-score),[17],1.58
same,glycan array binding signal (z-score),Fuc(a1-4)GlcNAc,-0.137
same,glycan array binding signal (z-score),Fuc(b1-3)GlcNAc,0.456
same,glycan array binding signal (z-score),Gal(a1-2)Gal,-0.516
same,glycan array binding signal (z-score),Gal(a1-3)Gal,-0.34
same,glycan array binding signal (z-score),Gal(a1-3)Gal(b1-3)GlcNAc,1.99
same,glycan array binding signal (z-score),[18],-0.247
same,glycan array binding signal (z-score),[19],3.83
same,glycan array binding signal (z-score),Gal(a1-3)Gal(b1-4)Glc,1.18
same,glycan array binding signal (z-score),Gal(a1-3)Gal(b1-4)GlcNAc,-1.29
same,glycan array binding signal (z-score),[20],0.458
same,glycan array binding signal (z-score),[21],0.342
same,glycan array binding signal (z-score),[22],2.12
same,glycan array binding signal (z-score),Gal(a1-3)GalNAc,0.083
same,glycan array binding signal (z-score),[23],-0.261
same,glycan array binding signal (z-score),[24],0.844
same,glycan array binding signal (z-score),Gal(a1-4)Gal(b1-4)Glc,-0.588
same,glycan array binding signal (z-score),Gal(a1-4)Gal(b1-4)GlcNAc,-0.782
same,glycan array binding signal (z-score),[25],0.194
same,glycan array binding signal (z-score),[26],-0.124
same,glycan array binding signal (z-score),Gal(a1-4)GlcNAc,-1.09
same,glycan array binding signal (z-score),Gal(a1-6)Glc,-0.593
same,glycan array binding signal (z-score),Gal(b1-2)Gal,-0.391
same,glycan array binding signal (z-score),Gal(b1-3)Gal,-1.15
same,glycan array binding signal (z-score),Gal(b1-3)Gal(b1-4)GlcNAc,-0.951
same,glycan array binding signal (z-score),[27],-0.346
same,glycan array binding signal (z-score),Gal(b1-3)GalNAc,-0.212
same,glycan array binding signal (z-score),[28],0.326

# 4 entries from above, set out differently.
binder | measurement | setting | value
B1 | glycan array binding signal (z-score) | [10] | 1.72
same | glycan array binding signal (z-score) | [11] | 0.912
same | glycan array binding signal (z-score) | [12] | -0.132
same | glycan array binding signal (z-score) | [13] | 1.05
